From paper PMC8748630
No constants are given. Whether binding was seen depends on the method and setting. In cells and extracts the contact can be indirect. These calls come from enrichment with a bait or labelling near it, and not all partners need be listed. A no says only that the protein was not detected with the bait. One block for each binder: values may come before it.

Experiments:
AGIA-AirID-CRBN-WT = AGIA-AirID-CRBN-WT (UniProt Q96SW2); test: proximity labelling; look-up of CRL4 components and known CRBN interactors in the LC-MS/MS analyses of AirID-CRBN cells (Supplementary Fig. 7); cell lines not given
[1] = biological target: T1, AGIA-AirID-CRBN-WT, Q96SW2; test: as above; conditions: remark: other sources report otherwise
T1 chain: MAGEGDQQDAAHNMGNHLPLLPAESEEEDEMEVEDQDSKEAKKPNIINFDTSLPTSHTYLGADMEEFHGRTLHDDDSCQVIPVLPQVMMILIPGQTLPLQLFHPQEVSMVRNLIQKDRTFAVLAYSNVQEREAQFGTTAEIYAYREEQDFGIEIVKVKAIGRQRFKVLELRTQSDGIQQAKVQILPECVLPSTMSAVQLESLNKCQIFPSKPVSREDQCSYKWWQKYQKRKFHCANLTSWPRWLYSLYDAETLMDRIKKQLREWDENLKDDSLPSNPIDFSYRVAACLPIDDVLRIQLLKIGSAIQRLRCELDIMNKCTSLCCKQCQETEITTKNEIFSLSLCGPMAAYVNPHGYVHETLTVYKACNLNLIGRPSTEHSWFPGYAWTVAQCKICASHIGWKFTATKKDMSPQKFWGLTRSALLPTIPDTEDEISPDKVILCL

AGIA-TurboID-CRBN-WT [2] = biological target: AGIA-TurboID-CRBN-WT (UniProt Q96SW2); test: proximity labelling; comparison of enzymes: HEK293T or IMR32 cells stably expressing AGIA-AirID-CRBN or AGIA-TurboID-CRBN; DMSO or 10 µM pomalidomide, 10 µM biotin, 5 µM MG132, 2 h or 6 h; streptavidin pull-down, immunoblot
AGIA-TurboID-CRBN-WT [3] = biological target: AGIA-TurboID-CRBN-WT (UniProt Q96SW2); test: proximity labelling; IMR32 cells stably expressing AGIA-AirID-CRBN or AGIA-TurboID-CRBN; DMSO or 10 µM pomalidomide, 10 µM biotin, 5 µM MG132, 2 h; tamavidin 2-REV, LC-MS/MS

binding (AGIA-AirID-CRBN-WT): no binding
B1: UBE2G1 (protein, UniProt P62253 1-170)
chain: MTELQSALLLRRQLAELNKNPVEGFSAGLIDDNDLYRWEVLIIGPPDTLYEGGVFKAHLTFPKDYPLRPPKMKFITEIWHPNVDKNGDVCISILHEPGEDKYGYEKPEERWLPIHTVETIMISVISMLADPNGDSPANVDAAKEWREDRNGEFKRKVARCVRKSQETAFE

binding [1]: no binding
B2: MEIS, O14770 1-477 (protein)
chain: MAQRYDELPHYGGMDGVGVPASMYGDPHAPRPIPPVHHLNHGPPLHATQHYGAHAPHPNVMPASMGSAVNDALKRDKDAIYGHPLFPLLALVFEKCELATCTPREPGVAGGDVCSSDSFNEDIAVFAKQVRAEKPLFSSNPELDNLMIQAIQVLRFHLLELEKVHELCDNFCHRYISCLKGKMPIDLVIDERDGSSKSDHEELSGSSTNLADHNPSSWRDHDDATSTHSAGTPGPSSGGHASQSGDNSSEQGDGLDNSVASPGTGDDDDPDKDKKRQKKRGIFPKVATNIMRAWLFQHLTHPYPSEEQKKQLAQDTGLTILQVNNWFINARRRIVQPMIDQSNRAGFLLDPSVSQGAAYSPEGQPMGSFVLDGQQHMGIRPAGLQSMPGDYVSQGGPMGMSMAQPSYTPPQMTPHPTQLRHGPPMHSYLPSHPHHPAMMMHGGPPTHPGMTMSAQSPTMLNSVDPNVGGQVMDIHAQ

binding [1]: no binding
B3: MCT-1, P53985 1-500 (protein)
chain: MPPAVGGPVGYTPPDGGWGWAVVIGAFISIGFSYAFPKSITVFFKEIEGIFHATTSEVSWISSIMLAVMYGGGPISSILVNKYGSRIVMIVGGCLSGCGLIAASFCNTVQQLYVCIGVIGGLGLAFNLNPALTMIGKYFYKRRPLANGLAMAGSPVFLCTLAPLNQVFFGIFGWRGSFLILGGLLLNCCVAGALMRPIGPKPTKAGKDKSKASLEKAGKSGVKKDLHDANTDLIGRHPKQEKRSVFQTINQFLDLTLFTHRGFLLYLSGNVIMFFGLFAPLVFLSSYGKSQHYSSEKSAFLLSILAFVDMVARPSMGLVANTKPIRPRIQYFFAASVVANGVCHMLAPLSTTYVGFCVYAGFFGFAFGWLSSVLFETLMDLVGPQRFSSAVGLVTIVECCPVLLGPPLLGRLNDMYGDYKYTYWACGVVLIISGIYLFIGMGINYRLLAKEQKANEQKKESKEEETSIDVAGKPNEVTKAAESPDQKDTDGGPKEEESPV

B4: ZMYM2 (protein, UniProt Q9UBW7 1-1377)
chain: MDTSSVGGLELTDQTPVLLGSTAMATSLTNVGNSFSGPANPLVSRSNKFQNSSVEDDDDVVFIEPVQPPPPSVPVVADQRTITFTSSKNEELQGNDSKITPSSKELASQKGSVSETIVIDDEEDMETNQGQEKNSSNFIERRPPETKNRTNDVDFSTSSFSRSKVNAGMGNSGITTEPDSEIQIANVTTLETGVSSVNDGQLENTDGRDMNLMITHVTSLQNTNLGDVSNGLQSSNFGVNIQTYTPSLTSQTKTGVGPFNPGRMNVAGDVFQNGESATHHNPDSWISQSASFPRNQKQPGVDSLSPVASLPKQIFQPSVQQQPTKPVKVTCANCKKPLQKGQTAYQRKGSAHLFCSTTCLSSFSHKPAPKKLCVMCKKDITTMKGTIVAQVDSSESFQEFCSTSCLSLYEDKQNPTKGALNKSRCTICGKLTEIRHEVSFKNMTHKLCSDHCFNRYRMANGLIMNCCEQCGEYLPSKGAGNNVLVIDGQQKRFCCQSCVSEYKQVGSHPSFLKEVRDHMQDSFLMQPEKYGKLTTCTGCRTQCRFFDMTQCIGPNGYMEPYCSTACMNSHKTKYAKSQSLGIICHFCKRNSLPQYQATMPDGKLYNFCNSSCVAKFQALSMQSSPNGQFVAPSDIQLKCNYCKNSFCSKPEILEWENKVHQFCSKTCSDDYKKLHCIVTYCEYCQEEKTLHETVNFSGVKRPFCSEGCKLLYKQDFARRLGLRCVTCNYCSQLCKKGATKELDGVVRDFCSEDCCKKFQDWYYKAARCDCCKSQGTLKERVQWRGEMKHFCDQHCLLRFYCQQNEPNMTTQKGPENLHYDQGCQTSRTKMTGSAPPPSPTPNKEMKNKAVLCKPLTMTKATYCKPHMQTKSCQTDDTWRTEYVPVPIPVPVYIPVPMHMYSQNIPVPTTVPVPVPVPVFLPAPLDSSEKIPAAIEELKSKVSSDALDTELLTMTDMMSEDEGKTETTNINSVIIETDIIGSDLLKNSDPETQSSMPDVPYEPDLDIEIDFPRAAEELDMENEFLLPPVFGEEYEEQPRPRSKKKGAKRKAVSGYQSHDDSSDNSECSFPFKYTYGVNAWKHWVKTRQLDEDLLVLDELKSSKSVKLKEDLLSHTTAELNYGLAHFVNEIRRPNGENYAPDSIYYLCLGIQEYLCGSNRKDNIFIDPGYQTFEQELNKILRSWQPSILPDGSIFSRVEEDYLWRIKQLGSHSPVALLNTLFYFNTKYFGLKTVEQHLRLSFGTVFRHWKKNPLTMENKACLRYQVSSLCGTDNEDKITTGKRKHEDDEPVFEQIENTANPSRCPVKMFECYLSKSPQNLNQRMDVFYLQPECSSSTDSPVWYTSTSLDRNTLENMLVRVLLVKDIYDKDNYELDEDTD
binding (AGIA-TurboID-CRBN-WT [2]): no binding (tested: 10 µM pomalidomide, 2 h) | binding (AGIA-TurboID-CRBN-WT [3]): no binding (tested: 10 µM pomalidomide, 2 h)
